Results on three molecules are retold here after paper PMC11071220, “Identification and characterization of a new potent inhibitor targeting CtBP1/BARS in melanoma cells” (Journal of Experimental & Clinical Cancer Research : CR, 2024).

Results are given in words; binding and its absence hold for the method and conditions named. Some binding calls cover weakened binding; strength is not graded here. For some of these results: Tags and fused reporters may be left off the sequences shown.

Assay [1] deals with His-CtBP1/BARS^wt (C-terminal-binding protein 1/brefeldin A ADP-ribosylation substrate) (UniProt Q9Z2F5). Description: pull-down; histidine pull-down on Ni-NTA agarose: equimolar His-CtBP1/BARS and GST-CtBP1/BARS, 4 °C; pre-incubation with DMSO, Comp.11 (5, 15, 25 µM), 100 µM NAD+ or 100 µM acyl-CoA; 50 mM Tris-HCl pH 8.0, 150 mM NaCl, 20 mM imidazole, 0.2% Triton X-100; blot with anti-GST and anti-His; both purified.

For assay [2], the target named is GST-E1A (adenovirus (serotype not given)) (UniProt P03255). The assay can be described thus: pull-down; both purified.
The target in assay [3] is T1, GST–14–3-3γ (UniProt P61981).
T1 sequence: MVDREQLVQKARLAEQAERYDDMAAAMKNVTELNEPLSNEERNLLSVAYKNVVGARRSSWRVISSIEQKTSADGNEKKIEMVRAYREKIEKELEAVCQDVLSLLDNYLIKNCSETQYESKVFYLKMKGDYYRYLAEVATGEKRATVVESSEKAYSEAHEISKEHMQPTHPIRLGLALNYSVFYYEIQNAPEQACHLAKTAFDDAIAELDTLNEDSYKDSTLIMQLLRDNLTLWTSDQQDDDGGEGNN
Description: pull-down; both purified.

Assay [4] concerns the target His-CtBP1/BARS^wt (C-terminal-binding protein 1/brefeldin A ADP-ribosylation substrate) (UniProt Q9Z2F5). The assay can be described thus: pull-down; histidine pull-down on Ni-NTA agarose: His-CtBP1/BARS (5 µg) pre-incubated with DMSO, Comp.11, 100 µM NAD+ or 100 µM acyl-CoA, then equimolar immunopurified LPAATδ-Flag, 2 h, 4 °C; His incubation buffer; blot with anti-Flag and anti-His; both purified.

In the case of “GST-CtBP1/BARS (from UniProt Q9Z2F5 1-430)”, the binding entry in assay [1] is given as “binds”. Consider “His-CtBP1/BARS^wt (C-terminal-binding protein 1/brefeldin A ADP-ribosylation substrate) (from UniProt Q9Z2F5 1-430)”, for which the binding entry in assay [2] and in assay [3] was “binds” each time.

B1: Flag-LPAATδ (lysophosphatidic acid acyltransferase type δ) (enzyme, UniProt Q9NRZ5 1-378)
chain: MDLAGLLKSQFLCHLVFCYVFIASGLIINTIQLFTLLLWPINKQLFRKINCRLSYCISSQLVMLLEWWSGTECTIFTDPRAYLKYGKENAIVVLNHKFEIDFLCGWSLSERFGLLGGSKVLAKKELAYVPIIGWMWYFTEMVFCSRKWEQDRKTVATSLQHLRDYPEKYFFLIHCEGTRFTEKKHEISMQVARAKGLPRLKHHLLPRTKGFAITVRSLRNVVSAVYDCTLNFRNNENPTLLGVLNGKKYHADLYVRRIPLEDIPEDDDECSAWLHKLYQEKDAFQEEYYRTGTFPETPMVPPRRPWTLVNWLFWASLVLYPFFQFLVSMIRSGSSLTLASFILVFFVASVGVRWMIGVTEIDKGSAYGNSDSKQKLND
With B1, the binding entry in assay [4] was “binds”.
